Source: PMC6100082, “Pyridine-Ureas as Potential Anticancer Agents: Synthesis and In Vitro Biological Evaluation” (Molecules : A Journal of Synthetic Chemistry and Natural …, 2018)

Test system: breast cancer MCF-7 cell line
Assay: In vitro anti-proliferative activity, MTT assay
Format: cell-based, human
Conditions: MCF-7, 48 h treatment, ratio of IC50
Description: The in vitro anti-proliferative activity of the newly prepared pyridine-ureas 8a–n was examined against breast cancer MCF-7 cell line. The assay was carried out, as triplicates, utilizing the 3-(4,5-dimethylthiazol-2-yl)-2,5-diphenyltetrazolium bromide (MTT) colorimetric assay as described by T. Mosmann. Doxorubicin and Sorafenib were included in this assay as a reference drug.
MCF-7 (human breast cancer cell line) and WI-38 (human lung fibroblast cell line), were obtained from American Type Culture Collection (Manassas, VA, USA). The cells were propagated in DMEM and supplemented with 10% heat-inactivated FBS (Hyclone), 10 μg/mL of insulin (Manufacturer, Sigma, St. Louis, MO, USA), and 1% penicillin-streptomycin. MTT assay was utilized to examine the in vitro anti-proliferative activity of the newly prepared ureas following the reported procedures. […] The data presented are the mean of at least three separate experiments.

For `COc1ccc(-c2ccc(NC(=O)Nc3ccc(Cl)c(C(F)(F)F)c3)c(C)n2)cc1` [Compound 8e, 1-(4-Chloro-3-(trifluoromethyl)phenyl)-3-(6-(4-methoxyphenyl)-2-methylpyridin-3-yl)urea], the “times more active than Doxorubicin” value was 8.7 times and the “times more active than Sorafenib” value was 20 times.
